For at least one entry, the source does not settle the construct or the ends of the probe.
Target: T1, His6-LexA (Streptomyces mobaraensis NBRC 13819) (UniProt A0A5N5W758)
T1 sequence: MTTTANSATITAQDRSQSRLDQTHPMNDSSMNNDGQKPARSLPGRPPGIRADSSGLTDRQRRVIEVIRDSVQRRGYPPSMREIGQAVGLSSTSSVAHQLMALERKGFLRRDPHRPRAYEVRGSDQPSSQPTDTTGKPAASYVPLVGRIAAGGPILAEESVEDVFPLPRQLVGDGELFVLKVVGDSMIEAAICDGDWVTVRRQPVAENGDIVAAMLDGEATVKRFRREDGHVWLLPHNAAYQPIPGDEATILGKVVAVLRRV
Assay: EMSA
Details: EMSA: 0, 100, 200 ng His6-LexA, 25 nM probe, 20 uL; 30 mM KCl, 10 mM Tris-HCl (pH not stated), 0.4 mM DTT, 2 mM MgCl2, 0.2 mM EDTA, 2% glycerol; 30 min, 30 C; recombinant protein; residues 1-261; protein details: N-terminal His6 (pET-28a(+)); probe letters rebuilt from the primers and the genome

CGAGCACGAGCGCGGCGTCCACCGGGCGGTGCCGGGGCTGCCCGAGGACGAGGTCGATGCCGTACGCCGGGGGGACGTCGGCGGTGTGCGCGGTGGCCGGG (double strand) [Probe divIVA (101 bp)]
binding result: binds

CGTGACAGTGCCGGCCTCCTCCGCGACGACGATCGGCGCGGGCGCGCTCCGCGACCGTACGAGCCACCCGGCGCGCGACGCGGCGACCCACCCGGCCAGCGGCGTCAGCAGCATCAT (double strand) [Probe ftsH (117 bp)]
binding result: binds

GATAGCCGAGCTGGCCGCGGCAGGACTCGACGGCATCGAGGTCGACCATATGGACCACGACGCCCCGGCCCGCGCCCGGCTGGGCGGCCTCGCCGCCGACCTCTCCCTGCTGACCACG (double strand) [Probe rplJ (118 bp)]
binding result: binds

GATCCCGCCGCTCGTACGGTCGGACATGTGCCCGGCAACCGGGCCGGGACCCACGCAGGTTACGTGTTCGAGGTGTGATGACGATGGAAACGACAAGGCCGGTGGCGGTG (double strand) [Probe araC1 (110 bp)]
binding result: binds

GTCATGACCCCCTGGCCGATTTCCGCCCCTCTTCTTCCACCATAAACCACGTCATCGAACATCCGTACGAACACGCGAGCGAACACCCCGCGTGCCTCCCGCCCTCGAGTC (double strand) [Probe sti (111 bp)]
binding result: binds
